# The other results are listed elsewhere or left out. Further columns of the screen follow, without active or inactive calls. The list favours compounds with an active or inconclusive main result. Potencies come from curve fits of mixed quality, noted in brackets.
# Assay: qHTS Assay for Lipid Storage Modulators in Drosophila S3 Cells;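 as to cell number change: cells counted by Cell Tracker Red CMTPX staining in the red channel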
# Details: BODIPY lipid droplet fluorescence, 18-24 h; for cell number change: measured here: cell count max response, cells fed with added oleic acid
# Procedure, shortened: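 Drosophila S3 cells loaded with oleic acid (400 uM, as added) and compounds at several concentrations; lipid droplets imaged by 488-nm laser-scanning cytometry, 500–530 nm intensity and object ratio to cell channel. Percent activity normalized to 20 uM Triacsin C.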
# [1] = measured here: cell number channel AC50, cells fed with added oleic acid
# [2] = measured here: lipid fluorescence (Fed channel) AC50, cells fed with added oleic acid
Structure (SMILES),cell number change,AC50 [1],AC50 [2]
COc1ccc(NC(=O)C2CC(=O)N(C)C(=Nc3ccc4c(c3)OCO4)S2)cc1 (configuration not stated),-17.3%,,
COc1ccc(N(CC(=O)N/N=C/c2cccnc2)S(=O)(=O)c2ccccc2)c(OC)c1,-48%,"29.1 µM [falling, single point]",
O=C(CCc1ccccc1)NCc1ccccn1,56.3%,"18.4 µM [rising, partial curve, poor fit]","0.411 µM [rising, partial curve, poor fit]"
O=C(O)CCSc1nnc(CNc2ccc(Cl)cc2)n1Cc1ccccc1,-8.88%,,"18.4 µM [falling, partial curve, poor fit]"
O=C(CCCN1C(=O)c2ccccc2C1=O)Nc1nncs1,-23.9%,"3.66 µM [falling, single point]","0.731 µM [falling, full curve]"
CN(CC(=O)Nc1ccc(F)cc1)C(=O)CN1C(=O)c2ccccc2C1=O,-31.1%,"6.51 µM [falling, partial curve, poor fit]","3.66 µM [falling, full curve, poor fit]"
Cc1ccc2c(c1)[C@H]1[C@H](CO2)[C@H](c2ccccc2)[C@]2(C)C(=O)Nc3cc(Cl)ccc3C(=O)N12,,,"0.731 µM [rising, full curve, poor fit]"
O=C(CCCN1C(=O)/C(=C\c2ccccc2)SC1=S)Nc1ccc(C(=O)O)cc1,-26.7%,,"29.1 µM [falling, single point]"
NS(=O)(=O)c1ccc(CCNC(=O)c2cc(=O)[nH]c3ccccc23)cc1,32.6%,,
N#Cc1ccc(Nc2nc(-c3ccc(O)cc3O)cs2)cc1C(F)(F)F,-75.6%,"18.4 µM [falling, single point]","1.16 µM [rising, partial curve]"
O=C(CCSc1nnc(-c2ccco2)o1)Nc1ccccc1,64.3%,"18.4 µM [rising, single point]","4.11 µM [falling, single point]"
O=c1[nH]nc(SCc2cc(Cl)ccc2Cl)c(=O)[nH]1,17%,,"29.1 µM [rising, single point]"
CCN(CC)CCOC(=O)c1ccc(NC(=O)CCCN2C(=O)S/C(=C/c3ccc(OC)cc3)C2=S)cc1,-42.1%,"7.31 µM [falling, partial curve, poor fit]","29.1 µM [falling, single point]"
CC1CC(C)CN(C(=O)COC(=O)c2ccc3ccccc3n2)C1 (configuration not stated),-48.3%,"29.1 µM [falling, single point]",
Cc1ccnc2c1ccc1ccccc12,8.11%,"0.461 µM [rising, full curve, poor fit]","29.1 µM [falling, single point]"
CCOC(=O)CSc1ncc(-c2ccccc2)cn1,13.5%,,"3.66 µM [falling, partial curve]"
COc1ccc(NC(=S)N(CCc2ccc(OC)c(OC)c2)Cc2ccccn2)cc1,34.6%,"0.517 µM [rising, full curve]","0.184 µM [rising, full curve]"
Cc1ccccc1CC1CCN(CCCNC(=O)Nc2ccccc2)CC1,23.6%,,"0.58 µM [rising, full curve, poor fit]"
Cc1ccc(C(O)(C(=O)NNc2ccc3ccccc3n2)c2ccc(C)cc2)cc1,-33.3%,"29.1 µM [falling, single point]","10.3 µM [falling, single point]"
O=C(O)c1ccccc1N=N/C(=N/Nc1cc(S(=O)(=O)O)ccc1O)c1ccccc1,9.03%,"0.00461 µM [falling, full curve, poor fit]","29.1 µM [falling, single point]"
CCNS(=O)(=O)c1ccc(CCC(=O)O)cc1,-22.4%,,"0.82 µM [falling, full curve, poor fit]"
Cc1cc(NC(=O)CSCC(=O)Nc2ccccc2OC(F)F)no1,18.1%,,
CCOc1ccc(S(=O)(=O)N2CCCC(C(=O)N3CCN(CC)CC3)C2)cc1Cl (configuration not stated),2.61%,,
CCCC1=NN(c2ccc([N+](=O)[O-])cc2)C(=O)/C1=C\N(C)C,69.8%,"29.1 µM [rising, single point]","5.8 µM [rising, partial curve]"
NC(=O)CSc1nnc(-c2ccccn2)n1N,-11.1%,,"2.59 µM [falling, full curve, poor fit]"
O=C(NCCO)c1ccc(-c2nnc(Nc3ccc(O)cc3)c3ccccc23)cc1,,,"6.51 µM [rising, single point]"
CC(=O)c1cccc(NC(=O)c2ccc(Br)o2)c1,-6.58%,,"0.0259 µM [falling, full curve, poor fit]"
CC(C)c1ccc(NCCC(=O)c2cccs2)cc1,15.8%,,"4.61 µM [rising, full curve]"

# A draw from above in order of formula weight, ascending.
Structure (SMILES),cell number change,AC50 [1],AC50 [2]
Cc1ccnc2c1ccc1ccccc12,8.11%,"0.461 µM [rising, full curve, poor fit]","29.1 µM [falling, single point]"
O=C(CCc1ccccc1)NCc1ccccn1,56.3%,"18.4 µM [rising, partial curve, poor fit]","0.411 µM [rising, partial curve, poor fit]"
CCCC1=NN(c2ccc([N+](=O)[O-])cc2)C(=O)/C1=C\N(C)C,69.8%,"29.1 µM [rising, single point]","5.8 µM [rising, partial curve]"
CC(=O)c1cccc(NC(=O)c2ccc(Br)o2)c1,-6.58%,,"0.0259 µM [falling, full curve, poor fit]"
O=C(CCSc1nnc(-c2ccco2)o1)Nc1ccccc1,64.3%,"18.4 µM [rising, single point]","4.11 µM [falling, single point]"
O=C(CCCN1C(=O)c2ccccc2C1=O)Nc1nncs1,-23.9%,"3.66 µM [falling, single point]","0.731 µM [falling, full curve]"
Cc1ccccc1CC1CCN(CCCNC(=O)Nc2ccccc2)CC1,23.6%,,"0.58 µM [rising, full curve, poor fit]"
CN(CC(=O)Nc1ccc(F)cc1)C(=O)CN1C(=O)c2ccccc2C1=O,-31.1%,"6.51 µM [falling, partial curve, poor fit]","3.66 µM [falling, full curve, poor fit]"
NS(=O)(=O)c1ccc(CCNC(=O)c2cc(=O)[nH]c3ccccc23)cc1,32.6%,,
N#Cc1ccc(Nc2nc(-c3ccc(O)cc3O)cs2)cc1C(F)(F)F,-75.6%,"18.4 µM [falling, single point]","1.16 µM [rising, partial curve]"
Cc1ccc(C(O)(C(=O)NNc2ccc3ccccc3n2)c2ccc(C)cc2)cc1,-33.3%,"29.1 µM [falling, single point]","10.3 µM [falling, single point]"
COc1ccc(NC(=O)C2CC(=O)N(C)C(=Nc3ccc4c(c3)OCO4)S2)cc1 (configuration not stated),-17.3%,,
O=C(CCCN1C(=O)/C(=C\c2ccccc2)SC1=S)Nc1ccc(C(=O)O)cc1,-26.7%,,"29.1 µM [falling, single point]"
COc1ccc(NC(=S)N(CCc2ccc(OC)c(OC)c2)Cc2ccccn2)cc1,34.6%,"0.517 µM [rising, full curve]","0.184 µM [rising, full curve]"
O=C(O)c1ccccc1N=N/C(=N/Nc1cc(S(=O)(=O)O)ccc1O)c1ccccc1,9.03%,"0.00461 µM [falling, full curve, poor fit]","29.1 µM [falling, single point]"
CCOc1ccc(S(=O)(=O)N2CCCC(C(=O)N3CCN(CC)CC3)C2)cc1Cl (configuration not stated),2.61%,,
Cc1ccc2c(c1)[C@H]1[C@H](CO2)[C@H](c2ccccc2)[C@]2(C)C(=O)Nc3cc(Cl)ccc3C(=O)N12,,,"0.731 µM [rising, full curve, poor fit]"

# Next entries follow.

Structure (SMILES),cell number change,AC50 [1],AC50 [2]
Cc1nn(Cc2ccccc2Cl)c2sc(C(=O)Nc3ccccc3N3CCOCC3)cc12,13.5%,"2.31 µM [rising, partial curve]","0.058 µM [rising, full curve, poor fit]"
Cc1cccc(NC(=O)c2sc3nc(-c4ccccc4)cn3c2C)n1,,"0.651 µM [rising, full curve]","0.651 µM [rising, full curve]"
CCOC(=O)C1(CC)NC(c2ccco2)C2C(=O)N(CC)C(=O)C21 (configuration not stated),,"6.51 µM [falling, single point]",
Cc1cccc(S(=O)(=O)c2c(N)n(/N=C/c3ccccc3)c3nc4ccccc4nc23)c1,151%,"0.366 µM [rising, full curve]","23.1 µM [rising, partial curve]"
CN(C(=O)c1ccc(NC(=O)Cc2cccc(NC(=O)C3CCN(C(=O)C4CCCC4)CC3)c2)cc1)C1CCCC1,-11.6%,"7.31 µM [falling, single point]","1.64 µM [falling, single point]"
COc1cccc(NC(=O)N2CCCC2C(=O)Nc2ccc3c(c2)OCCO3)c1 (configuration not stated),,"6.51 µM [rising, single point]",
Cc1c(N2C(=O)CSC2c2ccccc2)c(=O)n(-c2ccccc2)n1C (configuration not stated),11.1%,,
CN(C)CC(C)(C)NS(=O)(=O)c1ccc(Cl)cc1,5.04%,,"0.146 µM [falling, full curve]"
CS(=O)(=O)N(CC(=O)Nc1ccc2c(c1)OCO2)c1ccc2c(c1)OCO2,-51.4%,"20.6 µM [falling, single point]",
Cc1ccc(NC(=O)c2cc(S(=O)(=O)N3CCCCC3)c[nH]2)cc1C,1.8%,,"29.1 µM [falling, single point]"
CCN(c1ccc(NC(=O)CCNC(=O)c2ccco2)cc1)C(C)C,-83.3%,"20.6 µM [falling, single point]",
CCC(=O)Nc1cc(Cl)ccc1C(=O)O,-1.19%,,"2.31 µM [falling, single point]"
Cc1cc(C)n(C(=O)CNC(=O)c2ccc(Cl)cc2Cl)n1,45.2%,"18.4 µM [rising, single point]",
O=C(Nc1ccc2ccccc2n1)c1ccccc1,17.6%,,"5.17 µM [rising, full curve, poor fit]"
CCCSCC(=O)Nc1ncc2c(n1)-c1ccccc1CC2,-23.1%,,"6.51 µM [rising, partial curve, poor fit]"
O=C(CSc1nc(C2CC2)nc2ccccc12)N1CCCCC1,5.22%,,
CC(C)CN(C(=O)c1ccc2c(c1)OCO2)C1CCS(=O)(=O)C1 (configuration not stated),12.7%,,"2.31 µM [falling, full curve]"
CCOC(=O)N1CCN(C(=O)C(=O)N/N=C/c2ccc(OC)cc2OC)CC1,-17.5%,,"0.00461 µM [falling, full curve, poor fit]"
O=C(c1cc(-c2cccs2)nc2ccccc12)N1CCN(CCO)CC1,,"6.51 µM [falling, single point]","6.51 µM [falling, single point]"
S=C(NCC(c1ccco1)N1CCCC1)Nc1ccccc1 (configuration not stated),21%,,"4.11 µM [rising, single point]"
COc1ccc(-c2cc(C(=O)N3CCN(S(=O)(=O)c4ccccc4)CC3)[nH]n2)cc1,4.9%,,"6.51 µM [rising, single point]"
CCNC(=S)N(CCc1c(C)[nH]c2ccccc12)Cc1cc(OC)c(OC)c(OC)c1,-69.6%,"18.4 µM [falling, single point]","29.1 µM [falling, single point]"
COc1ccc2c(c1OC)C(=O)OC2CC(=O)c1ccc(O)c(O)c1 (configuration not stated),14.5%,,"6.51 µM [falling, single point]"
Cn1ncc2nc[nH]c(=O)c21,-42.9%,"1.3 µM [falling, full curve]","29.1 µM [falling, single point]"
Clc1ccc(Nc2nc(N3CCOCC3)nc(N3CCOCC3)n2)cc1Cl,42.5%,"6.51 µM [rising, partial curve]","1.46 µM [rising, partial curve]"
O=C(O)C=C(Br)Br,-6.68%,,"0.092 µM [falling, full curve, poor fit]"
Cc1cccc(-n2ncc3c(=O)[nH]c(SCC(=O)N4CC(=O)Nc5ccccc54)nc32)c1,-3.26%,,"0.116 µM [falling, full curve, poor fit]"
